Where “and” joins values, the source holds several entries; their conditions need not be identical. Equal values may be shown once. Hit rate of the full screen: of about 78,000 compounds, about 1,800 (2.3%) were called active. Inconclusive means that the source gave no clear call. Such entries were picked first, then a sample of the others. No stated cut-off is given here; in the data, active means inhibition above about 30%; inconclusive means mostly about 10% to 28%; inactive means weaker than that.
molecular target: Interleukin-1 receptor-like 1 (Homo sapiens) (UniProt Q01638); experiment: blocks human ST2 binding to IL-33, primary screen, biochemical, AlphaLISA (AID 1259354); conditions: AlphaLISA ST2-Fc/biotin-IL-33 interaction, 1 h; at 17 µM, stronger effect = higher value

Amino acid sequences for entries named in this document (tags omitted). A change or cut given only in a name is not applied to a line headed by its entry.
UniProt Q01638: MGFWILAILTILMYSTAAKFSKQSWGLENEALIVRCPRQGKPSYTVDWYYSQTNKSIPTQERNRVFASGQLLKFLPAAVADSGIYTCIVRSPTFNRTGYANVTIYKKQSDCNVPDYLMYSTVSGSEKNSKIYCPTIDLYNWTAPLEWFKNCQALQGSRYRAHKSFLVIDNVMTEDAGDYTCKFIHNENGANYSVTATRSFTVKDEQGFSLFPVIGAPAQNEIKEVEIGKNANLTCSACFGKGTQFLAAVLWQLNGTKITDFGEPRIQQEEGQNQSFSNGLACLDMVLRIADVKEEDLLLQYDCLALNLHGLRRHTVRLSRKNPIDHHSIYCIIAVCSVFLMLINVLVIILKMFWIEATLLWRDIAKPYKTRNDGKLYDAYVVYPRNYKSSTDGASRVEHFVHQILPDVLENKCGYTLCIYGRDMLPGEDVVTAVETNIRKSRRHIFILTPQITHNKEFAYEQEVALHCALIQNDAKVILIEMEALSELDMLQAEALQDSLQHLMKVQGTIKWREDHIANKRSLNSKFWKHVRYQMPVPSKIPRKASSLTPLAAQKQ

Compound | inhibition
CCOc1ccc(C2CC(c3ccc(CC)cc3)n3nc(N)nc3N2)cc1 (stereo unspecified) | inconclusive: 10%
O=C(C1CC1)N1CCc2cc(S(=O)(=O)NC3CCN(Cc4ccccc4)CC3)ccc21 | inconclusive: 17%
COc1ccc(NC(=O)NC2CCCN(C3CCCCCC3)C2)cc1OC (stereo unspecified) | inactive
CCc1ccc(-n2c(CN3CCN(S(=O)(=O)c4cccc(OC)c4)CC3)nc3cccnc32)cc1 | inactive
O=C(c1ccc(Cn2ccnc2)o1)N1C[C@H]2CC=CC[C@H]2C1 | inconclusive: 18%
O=C(O)C1CN(c2ncccn2)CCN1C(=O)c1nccc2ccccc12 (stereo unspecified) | inconclusive: 12%
CSc1ccc(S(=O)(=O)N2CCN(C/C=C/c3ccccc3)CC2)cc1 | inconclusive: 23%
N#Cc1cccc(NC(=O)N[C@H]2CO[C@H]3[C@@H]2OC[C@@H]3Nc2nccc(-c3cccc(F)c3)n2)c1 | inconclusive: 13%
CC1CCCN(c2nc3nonc3nc2Nc2ccc3c(c2)OCO3)C1 (stereo unspecified) | inactive
Cc1cc(C)cc(N2CCN(C(=O)c3ccc(C)[nH]c3=O)CC2=O)c1 | inactive
COc1ccc(S(=O)(=O)N2CCCC2C(=O)NC2=NCCS2)cc1 (stereo unspecified) | inactive
COc1ccc(C2NC(Cc3ccccc3)(C(=O)O)C3C(=O)N(c4ccc(F)cc4)C(=O)C23)cc1 (stereo unspecified) | inactive
O=C(Cc1ccccc1)Nc1c(C(=O)Nc2cccc(F)c2)oc2ccccc12 | inactive
CC1(C)C=Cc2c(nc3ccccc3c2NCc2ccccc2)C1 | inconclusive: 10%
COc1cccc(NC(=O)c2oc3ccccc3c2NC(=O)COc2ccccc2F)c1 | inactive
COc1ccc(-c2nc(-c3cccc([N+](=O)[O-])c3)no2)cc1OC | inactive
c1ccc(CN(Cc2cnc(-c3ccccn3)nc2)CC2CCCO2)nc1 (stereo unspecified) | inconclusive: 10%
COc1cc(OC)c(NC(=O)CNC(=O)Cn2ccc3ccccc3c2=O)cc1Cl | inconclusive: 14%
Cc1ccc2nc(CN(C)C(=O)c3cn4cccnc4n3)[nH]c2c1 | inconclusive: 17%
CC(=O)c1ccc(N=c2oc3ccccc3cc2-c2nc3ccccc3[nH]2)cc1 | inconclusive: 18%
Cc1ccc2nc(-c3cc(N=Cc4ccc([N+](=O)[O-])cc4)ccc3O)[nH]c2c1 | active: 38%
Cc1nnc(SCCCNC(=O)c2ccc3nc[nH]c3c2)s1 | inactive
COc1ccccc1NC(=O)Nc1cccc2cccnc12 | inactive

Compound | inhibition
O=C(Cn1cnc2c(cnn2-c2ccc(Cl)cc2)c1=O)NCc1ccc2c(c1)OCO2 | inconclusive: 13%
CCN1CCCC1CNC(=O)c1cc(-c2ccc(Cl)s2)nc2ccccc12 (stereo unspecified) | inconclusive: 17%
COc1ccc(C2C(C#N)=C(N)N(c3ccc([N+](=O)[O-])cc3)C3=C2C(=O)CCC3)cc1OC (stereo unspecified) | inconclusive: 12%
Cc1ccc(C2=NN=C(NC(=O)CSc3nc(C)cc(C)n3)SC2)cc1 | inconclusive: 11%
C=C(C)[C@@H]1CC[C@]2(C)CC[C@]3(C)C(CCC4[C@@]5(C)CC[C@H](O)C(C)(C)C5CC[C@]43C)C12 (stereo partly specified) | inconclusive: 14%
CN=c1nc(-c2ccccc2)n(-c2ccccc2)s1 | inconclusive: 16%
NC(N)=Nc1nc(CSCCC(N)=NS(N)(=O)=O)cs1 | inconclusive: 13%
Cc1ccccc1-c1ncc(CNC2C=CS(=O)(=O)C2)s1 (stereo unspecified) | inconclusive: 13%
CC(=O)OC(CCCCc1ccc(O)c(O)c1)CCc1ccc(O)cc1 (stereo unspecified) | inconclusive: 17%
O=C1CCCC2=C1C(c1ccc(F)cc1)c1c(nc(SCc3ccccc3F)[nH]c1=O)N2 (stereo unspecified) | inconclusive: 26%
CC1C(=O)C(C)C(c2ccc(N(C)C)cc2)NC1c1ccc(N(C)C)cc1 (stereo unspecified) | active: 36% and inconclusive: 15%
CCN(CC)C(=O)Cn1cnc2sc(C(=O)N3CCN(c4ccccn4)CC3)c(C)c2c1=O | inconclusive: 13%
O=c1[nH]nc(CCn2cccn2)n1-c1cccc(Br)c1 | inconclusive: 18%
Cc1ccc(-c2nc(C(N)=O)c3c(n2)n(-c2ccc(C)c(C)c2)c(=O)n3Cc2ccccc2)cc1C | inactive
COc1ccc(C2CCN(Cc3ccc(Sc4nncn4C)o3)c3ccccc3S2)cc1C (stereo unspecified) | active: 31%
CCOc1nc(-c2ccccc2O)nc2ccccc12 | inconclusive: 21%
CC(=O)c1ccc(N2CCN(C(=O)CCCn3c(=O)[nH]c4ccsc4c3=O)CC2)cc1 | inconclusive: 10%
CCN(CC)C(=O)C1=C(C)Nc2nc3ccccc3n2C1c1ccncc1 (stereo unspecified) | inactive
Clc1ccc2nc(-c3ccccn3)c(Nc3ccc4c(c3)OCCO4)n2c1 | inconclusive: 14%
CCC(C)NC(=O)Cn1cnc2sc(C)c(S(=O)(=O)N3CC(C)CC(C)C3)c2c1=O (stereo unspecified) | inactive
COCC1(C(=O)N2CCCC(Cc3ccc(C(=O)O)cc3)C2)CCC1 (stereo unspecified) | inconclusive: 11%
CC(C)c1csc(CN2CCCC(CCNS(C)(=O)=O)C2)n1 (stereo unspecified) | inactive
O=C(c1cnc(N2CCN(c3ccccn3)CC2)c2ccccc12)N1CCN(c2ccccn2)CC1 | inactive

Compound | inhibition
Cn1c(CCc2cccc(NC(=O)C3CCN(S(=O)(=O)N4CCCC4)CC3)c2)nc2ccccc21 | inconclusive: 17%
Cc1ccc(O)c(NC(=O)CCCn2nc([N+](=O)[O-])c(Cl)c2C)c1 | inactive
CCCc1nc(C(=O)N2C[C@H]3CC=CC[C@H]3C2)cs1 | inconclusive: 10%
O[C@@H]1C[C@@H](c2nc(-c3ccccc3)no2)N(Cc2ncc[nH]2)C1 | inconclusive: 22%
CCOc1ccc(C2NC(=O)c3c(sc4c3CCN(C)C4)N2)c(O)c1 (stereo unspecified) | inconclusive: 15%
CCOc1ccc2[nH]c(=O)c(CN3C[C@H](O)[C@@H](N4CCOCC4)C3)cc2c1 | inconclusive: 20%
O=C(O)c1ccc(CN2CCN(c3ccc([N+](=O)[O-])cc3)CC2)cc1 | inactive
Cn1c(=O)[nH]c(=O)c2c1nc(N(CCO)CCO)n2CCc1ccccc1 | inconclusive: 16%
COc1ccc(NS(C)(=O)=O)cc1 | inactive
CCCS(=O)(=O)N1CCCC(C(=O)NC2CCC(C)CC2)C1 (stereo unspecified) | inconclusive: 13%
CN1CCN(C(=O)CC[C@@H]2CNC(=O)[C@@H]3C[C@H](NC(=O)Nc4ccc(F)cc4F)CN23)CC1 | inactive
Cc1cc(N2CCOCC2)nc(N2CCN(S(=O)(=O)c3ccc(Cl)cc3)CC2)n1 | inconclusive: 15%
C=C(C)COc1ccccc1C(=O)NC(C)c1nc(-c2cccnc2)no1 (stereo unspecified) | inactive
Cc1ccc(NCCCNC(=O)c2ccc(=O)n(C)c2)nc1 | inactive
Cc1nc(N(C)C2CCCCC2)ncc1C(C)NC(=O)c1ocnc1C (stereo unspecified) | inactive
CNS(=O)(=O)c1ccc(-c2nccn2-c2ccccc2CCO)cc1 | inconclusive: 17%
O=C(CN1C(=O)CC(c2ccccc2)=Nc2ccccc21)Nc1cccc(Cl)c1 | inactive
CC1=CC(C)(C)Nc2ccc(OC(=O)c3cccs3)cc21 | inconclusive: 14%
COc1ccc(CC2CN(CC3CCC(N)CC3)CCO2)cc1 (stereo unspecified) | inactive
CC(C)CN(CC#Cc1ccccc1)C(=O)C(C)N1CCN(C)CC1 (stereo unspecified) | inactive
CCC(C)NC(=O)CCc1c(C)nc2cc(-c3ccccc3)nn2c1C (stereo unspecified) | inconclusive: 17%
O=C(c1ccccc1Br)N1CCN(C/C=C/c2ccccc2)CC1 | inconclusive: 14%
COc1cc(C)c(CN2CCc3c([nH]c4ccccc34)C2)cc1C | inconclusive: 28%

Compound | inhibition
COc1ccc2cc3cc(C(=O)NCCCN4CCN(c5ccc(F)cc5)CC4)oc3nc2c1 | inconclusive: 14%
O=C(c1cccn2c(=O)c3c4c(sc3nc12)CCCC4)N1CCN(c2ccc(Cl)cc2)CC1 | inconclusive: 12%
Cc1nn(C)c(C)c1CCC(=O)NCc1scnc1-c1ccccc1 | inconclusive: 23%
CN(C)c1ncnc2c1CCN(C(=O)c1c[nH]c3c(F)cccc3c1=O)C2 | inconclusive: 16%
O=C(NC1CCN(Cc2ccccc2)C1)c1cn(CCC2CCCCC2)nn1 (stereo unspecified) | inconclusive: 14%
CCn1c(C2CCN(CC3=Cc4cccc(OC)c4OC3)CC2)n[nH]c1=O | inactive
CC(C)c1nc(CN(C)C(=O)c2sccc2Cl)cs1 | inconclusive: 13%
O=C(NC1CCCCCC1)c1ccc(N2CCCC2=O)cc1 | inconclusive: 13%
Cc1nc2c(-c3ccc(F)cc3)c(C)nn2c(C)c1CCC(=O)NC1CCCC1 | inconclusive: 15%
CCC(=O)Nc1cccc(C(=O)NC(C)c2cn3ccsc3n2)c1 (stereo unspecified) | inconclusive: 19%
CCN(CC)C(=O)[C@@H]1C[C@H](N)CN1C(=O)c1cc2cccc(Cl)c2n1C | inconclusive: 13%
CC(=O)Nc1ccc(S(=O)(=O)c2cc(O)ccc2O)cc1 | inconclusive: 13%
Cc1cccc(N(CC(=O)NCc2cccnc2)S(=O)(=O)c2ccccc2)c1C | inactive
COC(=O)Nc1ccc(S(=O)(=O)N2CCCCC2)cc1 | inconclusive: 11%
O=C(c1cnn2cc(CCO)cnc12)N1CCOC(C(F)(F)F)C1 (stereo unspecified) | inactive
CSc1ccccc1N1C(=O)C2CC=CCC2C1=O (stereo unspecified) | inconclusive: 15%
O=C(CSc1nc2c(sc3ccccc32)c(=O)n1CC1CCCO1)NCc1ccccc1 (stereo unspecified) | inconclusive: 21%
COc1ccc(C(=O)Nc2c3c(nn2-c2ccc(OC)cc2)CS(=O)C3)cc1 (stereo unspecified) | inactive
Cc1ccc(C2C(C#N)=C(N)Oc3n[nH]c(C(F)(F)F)c32)cc1 (stereo unspecified) | inactive
O=C(Nc1ccc(Oc2ccccc2)cc1)O[C@@H]1CO[C@H]2[C@@H]1OC[C@@H]2NC(=O)c1ccccc1 | inconclusive: 25%
COc1ccc(NC(=O)/C(=C/c2ccco2)NC(=O)c2ccc(Br)o2)cc1 | inconclusive: 19%
Cc1sc2ncn(CC(=O)NC3CCCCC3)c(=O)c2c1C | inactive

From PubChem BioAssay AID1259354 (Paczesny and Yang Labs, IUPUI and University of Michigan, 2018)
